PubChem BioAssay AID743255 (National Center for Advancing Translational Sciences (NCATS), 2014)
Several values for one entry are separate records, joined by “and”; a condition that tells them apart may be missing. Equal entries are not always repeated. Among all 390,000 compounds or so, about 910 (0.23%) were called active. Inconclusive results, whose numbers are uncertain, are shown with a selection of clear calls. Calls come from the whole dose curve; as a rule, active = well fitted inhibition curve with a large enough effect; inconclusive = small, poorly fitted or top-dose-only effect; inactive = no such curve, though single readings can be large or run the other way. Where the call is inconclusive, the potency comes from a doubtful curve fit.

By UniProt entry, the sequences of proteins in these tests, tags left out. Where a name states a change or a piece, a line headed by the entry shows the natural chain unless it says otherwise.
UniProt O94782: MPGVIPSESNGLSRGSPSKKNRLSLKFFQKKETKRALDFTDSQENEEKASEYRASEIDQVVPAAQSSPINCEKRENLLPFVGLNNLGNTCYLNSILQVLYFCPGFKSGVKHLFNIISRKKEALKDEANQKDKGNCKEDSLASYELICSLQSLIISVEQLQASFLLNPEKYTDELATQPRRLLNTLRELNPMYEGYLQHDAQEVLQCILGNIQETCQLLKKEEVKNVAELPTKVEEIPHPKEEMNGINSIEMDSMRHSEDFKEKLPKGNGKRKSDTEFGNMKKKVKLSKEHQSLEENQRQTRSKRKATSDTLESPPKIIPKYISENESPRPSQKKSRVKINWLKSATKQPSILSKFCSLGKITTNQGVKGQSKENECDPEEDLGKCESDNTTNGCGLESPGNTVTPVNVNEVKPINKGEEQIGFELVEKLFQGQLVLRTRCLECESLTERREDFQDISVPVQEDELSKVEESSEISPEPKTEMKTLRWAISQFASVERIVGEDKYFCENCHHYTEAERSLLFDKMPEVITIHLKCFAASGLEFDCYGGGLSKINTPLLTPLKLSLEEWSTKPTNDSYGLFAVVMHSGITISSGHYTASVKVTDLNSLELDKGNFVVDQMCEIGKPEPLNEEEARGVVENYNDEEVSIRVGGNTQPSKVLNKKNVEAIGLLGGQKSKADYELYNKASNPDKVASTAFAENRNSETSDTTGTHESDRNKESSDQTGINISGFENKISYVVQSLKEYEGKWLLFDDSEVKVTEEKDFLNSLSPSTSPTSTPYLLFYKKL

target: Ubiquitin carboxyl-terminal hydrolase 1 (Homo sapiens) (UniProt O94782); assay: Inhibitors of USP1/UAF1: Primary Screen; details: recombinant USP1/UAF1, Ub-Rhodamine cleavage fluorescence; activity change, negative = inhibition: at 57.1 µM (top of the series); note: nearly all actives have a fitted effect of over 60% in size
Outline: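 High-throughput fluorogenic screen: 1nM USP1/UAF1 complex, Ub-Rho substrate 150nM final, 50mM HEPES pH 7.8 with 0.5mM EDTA, 0.1 mg/ml BSA, 1mM TCEP and 0.01% Tween-20.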
% is set by controls: 0 for no effect and ±100 for the full control effect; potency is the fitted concentration of half-maximal effect.

Potency, inconclusive:
O=C1c2ccccc2C(=O)c2c1ccc(O)c2O 35.5 µM [inhibitor, partial curve]
COCc1cc(C)nc2sc3c(c12)NC(c1ccc(NC(C)=O)cc1)N(c1ccc(C)cc1)C3=O (configuration not stated) 2000 µM [inhibitor, partial curve, poor fit]
CCCCCNC(=O)c1cc(S(=O)(=O)N2CCCCC2)ccc1F 50.1 µM [inhibitor, partial curve, poor fit]
Cc1c2cnn(CC(=O)Nc3c(F)c(F)cc(F)c3F)c(=O)c2c(C)n1Cc1ccccc1F 35.5 µM [inhibitor, partial curve]
C/C(O)=c1/ccc2cccc3nc(C)nc1c23 35.5 µM [inhibitor, single point]
COCC(C)n1c(SCc2ccc(C(=O)OC)o2)nc2ccccc2c1=O (configuration not stated) 31.6 µM [inhibitor, single point]
O=C(CSc1nc(=O)[nH]c2c1CCCC2)Nc1cc(C(F)(F)F)ccc1Cl 28.2 µM [inhibitor, single point]
C#CCN1Cc2ccccc2Oc2cc(Br)ccc2S1(=O)=O 158 µM [inhibitor, partial curve, poor fit]
CCc1ccc(CNC(=O)c2ccc3c(c2)nc2n3CCOC2)cc1 112 µM [inhibitor, partial curve]
CC1CCC(NC(=O)c2ccc3c(c2)N(Cc2cccc(F)c2)C(=O)c2ccccc2S3)CC1 (configuration not stated) 22.4 µM [inhibitor, partial curve, poor fit]
COc1ccc(NC(=O)Nc2ccc(OCc3ccccc3)cc2)cn1 39.8 µM [inhibitor, partial curve]
CN1/C(=C\C(=O)c2ccco2)C(C)(C)c2ccccc21 31.6 µM [inhibitor, partial curve]
CCOC(=O)C1=C(COC(=O)c2ccc([N+](=O)[O-])o2)NC(=O)NC1C (configuration not stated) 31.6 µM [inhibitor, partial curve, poor fit]
CCOc1ccc(CNC(=O)c2sc3nc(C)cc(C)c3c2-n2cccc2)cc1 44.7 µM [inhibitor, partial curve, poor fit]
Oc1ccc(C[C@H]2CNC(=S)N2CC2CCCN2C[C@H](Cc2ccc(O)cc2)N2C[C@H](Cc3ccccc3)N(CC3CCCCC3)C2=S)cc1 (some centres not stated) 0.398 µM [inhibitor, full curve]
CCn1cc(CCC(=O)O)c(C)n1 0.355 µM [inhibitor, full curve, poor fit]
CCCCN1C(=O)C(C#N)CC2=C1CC(C)(C)CC2=O (configuration not stated) 56.2 µM [inhibitor, partial curve, poor fit]
COc1ccc2c(c1)C(=O)N(c1ccc(C)cc1)C(=O)C2 28.2 µM [inhibitor, partial curve]
Cc1nc(N)sc1C(=O)N1N=N1 6.31 µM [inhibitor, partial curve]
CCOc1ccc(NC(=O)CSc2nnc(NC(=O)Nc3ccccc3)s2)cc1 70.8 µM [inhibitor, partial curve, poor fit]
CN1CCN(C2=C(NS(=O)(=O)c3cccs3)C(=O)c3ccccc3C2=O)CC1 17.8 µM [inhibitor, partial curve]
C=C1[C@@H](O)[C@H](CC(C)C)N(Cc2ccccc2Br)S1(=O)=O 35.5 µM [inhibitor, partial curve]
COc1ccccc1Nc1ccc([N+](=O)[O-])cc1N 7.08 µM [inhibitor, full curve]
CN(C)c1ccc(/C=C2\Oc3ccc(C#Cc4cccc(N)c4)cc3C2=O)cc1 63.1 µM [inhibitor, single point]
O=c1[nH]c(/C=C\c2ccc(O)cc2)nc(O)c1[N+](=O)[O-] 0.398 µM [inhibitor, full curve, poor fit]
COCc1ccc(-c2c(-c3cc(OC)cc(OC)c3)oc(=O)c3cc(OC)c(OC)cc23)cc1 5.01 µM [inhibitor, full curve, poor fit]
CC(C)=NOCC(=O)Nn1c(COc2c(C)cccc2C)nc2ccccc2c1=O 35.5 µM [inhibitor, partial curve, poor fit]
CCN1C(=O)[C@@H]2[C@@H](c3ccc(-c4ccc5c(c4)OCO5)c(OC)c3)N3CCCC[C@@]3(C(=O)OC)[C@@H]2C1=O 0.316 µM [inhibitor, full curve, poor fit]
CCN(CC)c1ccc(SS(=O)(=O)O)cc1 39.8 µM [inhibitor, partial curve, poor fit] and 56.2 µM [inhibitor, partial curve, poor fit]
CCCCCC(=O)N1C[C@H](n2cc(-c3ccc(F)cc3)nn2)[C@@H](O)C[C@@H]1c1ccc(C)cc1 50.1 µM [inhibitor, partial curve, poor fit]
COc1ccc(Cc2nnc(NCCO)[nH]c2=O)cc1 5.01 µM [inhibitor, full curve, poor fit]
Cc1ccc(S(=O)(=O)c2nc(-c3cccs3)oc2SCC(=O)Nc2cc(C)cc(C)c2)cc1 10 µM [inhibitor, full curve, poor fit]
COc1ccc(-c2c(-c3ccc(OC)nc3)c3ccccc3n2C)cc1 63.1 µM [inhibitor, partial curve, poor fit]
CN1C(=O)/C(=C\c2ccc(-c3ccccc3)o2)SC1=S 7.94 µM [inhibitor, partial curve]
COc1ccc(N2C(=O)CSC23C(=O)N(Cc2cccc(C(F)(F)F)c2)c2ccccc23)cc1 (configuration not stated) 112 µM [inhibitor, partial curve, poor fit]
CCOC(=O)C1C(=O)OC2(CCCCC2)C1C(=O)OCC (configuration not stated) 35.5 µM [inhibitor, single point]
Cc1ccc(C(=O)NC(=S)NCCCN2CCOCC2)cc1 50.1 µM [inhibitor, partial curve, poor fit]
CCOC(=O)N1CCN(C(=O)CSc2nnc(-c3ccc(C(C)(C)C)cc3)o2)CC1 1 µM [inhibitor, full curve]
CCC1(c2ccccc2)NC(=O)N(CC(=O)NNC(=O)c2ccc(F)cc2)C1=O (configuration not stated) 5.01 µM [inhibitor, full curve, poor fit]
COc1ccc(N(Cc2cccs2)C(=O)COc2cccc(C)c2C)cc1 0.794 µM [inhibitor, full curve, poor fit]
CC(=O)Nc1ccc(-c2nc(C)c(C(C)=O)n2O)cc1 7.08 µM [inhibitor, single point]
Cc1cc(-c2ccc(C)c(S(=O)(=O)Nc3ccccn3)c2)on1 3.55 µM [inhibitor, full curve, poor fit]

Reprinted from above (3 entries):
Potency, inconclusive:
CCOC(=O)C1C(=O)OC2(CCCCC2)C1C(=O)OCC (configuration not stated) 35.5 µM [inhibitor, single point]
Cc1ccc(C(=O)NC(=S)NCCCN2CCOCC2)cc1 50.1 µM [inhibitor, partial curve, poor fit]
CCOC(=O)N1CCN(C(=O)CSc2nnc(-c3ccc(C(C)(C)C)cc3)o2)CC1 1 µM [inhibitor, full curve]

Next part:

Potency, active:
O=C(N/N=C\c1c(O)ccc2ccccc12)c1cncc(Br)c1 31.6 µM

Activity change, negative = inhibition, inactive:
COc1ccc(C2C(C(=O)Nc3ccccc3)=C(C)Nc3nc(-c4ccccc4)nn32)cc1OC (configuration not stated) -28.5%
CCOC(=O)c1ccccc1NC(=O)CSc1ccc(-c2sc(-c3ccccc3)nc2C)nn1 -17.9%
CCC(=O)N1c2ccc(S(=O)(=O)CCC(=O)N3CCN(c4ccccc4F)CC3)cc2CC1C (configuration not stated) -7.82%
COc1cc(C(=O)NC(=S)NC(C)C)cc(OC)c1OC -16.6%
COc1ccc(-c2sc(Nc3ccccc3)n[n+]2-c2ccccc2)cc1Br -24.5%
COc1ccc(CNc2nc3c(S(=O)(=O)c4ccccc4)nnn3c3ccc(Cl)cc23)cc1 6.63%
C/C(=N\OCC(=O)Nc1ccccc1C(=O)O)c1cccs1 -19.5%
CCc1ccc(OCc2ccc(C(=O)OC)o2)cc1 -7.55%
Fc1ccc(-c2cc(-c3nc(-c4cccc(Cl)c4)no3)[nH]n2)cc1 5.11%
CN1CCN(C(CNC(=O)C(=O)Nc2ccc(F)cc2)c2cccnc2)CC1 (configuration not stated) 3.05%
COc1cc(OC)c2c(-c3ccccc3)cc(=O)oc2c1C(CC(=O)N1CCOCC1)c1ccc2c(c1)OCO2 (configuration not stated) -22%
CN(C)CCCN(C(=O)c1ccco1)c1nc(-c2ccc(Cl)cc2)cs1 -12.6%
NC(=O)c1ccc(NC(=O)COC(=O)/C=C/c2ccc(Br)o2)cc1 -8.92%
C/C(=N\Nc1nc2ccccc2s1)c1ccc(Br)s1 -13.6%
Cc1ccccc1-n1nc(CO)c(C(=O)NCCc2ccccc2)n1 -26.5%
Cc1cc[n+](CC(=O)c2ccccc2)c2ccccc12 -10.4%
CCCn1c(N2CCOCC2)nc2c1c(=O)[nH]c(=O)n2C -1.34%
CCOC(=O)c1c(NC(=O)CN2CCCCC2)sc(CN(C)C)c1-c1ccccc1 -12.4%
COc1ccc(Cl)cc1NC(=O)C1CCN(c2ncnc3c2nc2n3CCCCC2)CC1 -1.5%
COc1ccc(OCC(=O)NNC(=S)NC(=O)c2ccc([N+](=O)[O-])cc2)cc1 -17.8%
COC(=O)c1ccc(-n2c(C)cc(C(=O)COC(=O)C3=COCCO3)c2C)cc1 -30.8%
C#CCOc1c(Cl)cc(/C=C2/C(=O)ON=C2C)cc1OC -6.53%
O=C(O)C(=O)/C(=C\c1ccccc1)c1ccc2ccccc2n1 -21.4%
O=[N+]([O-])c1cccc(N/N=C/c2cccc(O)c2O)c1 -7.87%

2 entries drawn at random from those above:
Activity change, negative = inhibition, inactive:
COc1ccc(OCC(=O)NNC(=S)NC(=O)c2ccc([N+](=O)[O-])cc2)cc1 -17.8%
CCCn1c(N2CCOCC2)nc2c1c(=O)[nH]c(=O)n2C -1.34%
